# Some of the results follow.
# B1: Actd5 (Actinidia), P84527 (protein)
# chain: ISSCNGPCRDLNDCDGQLICIKGKCNDDPQVGTHICRGTTHSHQPGGCKPSGTLTCRGKSYPTYDCSPPVTSSTPAKLTNNDFSEGGDDGGPSECDESYHNNNERIVALSTGWYNGGSRCGKMIRITASNGKSVSAKVVDECDSRHGCDKEHAGQPPCRNNIVDGSNAVWSALGLDKNVGVVDITWSMA
# What was measured:
# Test in all cases: glycan array binding signal (z-score within array); higher = stronger binding
# Settings in all cases: glycan notation: IUPAC condensed, linker removed
# [1] = target: GlcNAc(a1-6)Gal(b1-4)GlcNAc
# How it was run: (§1)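 Glycan array binding is given as a within-array Z-score, which can be read as non-binding when negative. The arrays, 3228 of them, came from the Consortium for Functional Glycomics database and were retained only where the protein sequence was available. Z-scores were averaged across arrays of the same protein sequence at different concentrations or buffers and across linkers.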
# [2] = target: GlcNAc(b1-2)Gal(b1-3)GalNAc
# How it was run: as §1
# [3] = target: GlcNAc(b1-2)Man(a1-3)[GlcNAc(b1-2)Man(a1-6)]Man(b1-4)GlcNAc(b1-4)GlcNAc
# How it was run: as §1
# [4] = target: GlcNAc(b1-2)Man(a1-3)[GlcNAc(b1-2)Man(a1-6)]Man(b1-4)GlcNAc(b1-4)[Fuc(a1-6)]GlcNAc
# How it was run: as §1
# [5] = target: GlcNAc(b1-2)Man(a1-3)[GlcNAc(b1-4)][GlcNAc(b1-2)Man(a1-6)]Man(b1-4)GlcNAc(b1-4)GlcNAc
# How it was run: as §1
# [6] = target: GlcNAc(b1-2)Man(a1-3)[GlcNAc(b1-4)][GlcNAc(b1-2)Man(a1-6)]Man(b1-4)GlcNAc(b1-4)[Fuc(a1-6)]GlcNAc
# How it was run: as §1
# [7] = target: GlcNAc(b1-2)[GlcNAc(b1-4)]Man(a1-3)[GlcNAc(b1-2)Man(a1-6)]Man(b1-4)GlcNAc(b1-4)GlcNAc
# How it was run: as §1
# [8] = target: GlcNAc(b1-2)[GlcNAc(b1-4)]Man(a1-3)[GlcNAc(b1-4)][GlcNAc(b1-2)Man(a1-6)]Man(b1-4)GlcNAc(b1-4)GlcNAc
# How it was run: as §1
# [9] = target: GlcNAc(b1-2)[GlcNAc(b1-4)]Man(a1-3)[GlcNAc(b1-4)][GlcNAc(b1-2)[GlcNAc(b1-6)]Man(a1-6)]Man(b1-4)GlcNAc(b1-4)GlcNAc
# How it was run: as §1
# [10] = target: GlcNAc(b1-2)[GlcNAc(b1-4)]Man(a1-3)[GlcNAc(b1-4)][GlcNAc(b1-2)[GlcNAc(b1-6)]Man(a1-6)]Man(b1-4)GlcNAc(b1-4)[Fuc(a1-6)]GlcNAc
# How it was run: as §1
# [11] = target: GlcNAc(b1-2)[GlcNAc(b1-6)]Man(a1-6)[GlcNAc(b1-2)Man(a1-3)]Man(b1-4)GlcNAc(b1-4)GlcNAc
# How it was run: as §1
# [12] = target: GlcNAc(b1-2)[GlcNAc(b1-6)]Man(a1-6)[GlcNAc(b1-2)Man(a1-3)]Man(b1-4)GlcNAc(b1-4)[Fuc(a1-6)]GlcNAc
# How it was run: as §1
# [13] = target: GlcNAc(b1-2)[GlcNAc(b1-6)]Man(a1-6)[GlcNAc(b1-4)][GlcNAc(b1-2)Man(a1-3)]Man(b1-4)GlcNAc(b1-4)GlcNAc
# How it was run: as §1
# GlcNAc(b1-3)Fuc = target: GlcNAc(b1-3)Fuc
# How it was run: as §1
# GlcNAc(b1-3)Gal = target: GlcNAc(b1-3)Gal
# How it was run: as §1
# [14] = target: GlcNAc(b1-3)Gal(b1-3)GalNAc
# How it was run: as §1
# GlcNAc(b1-3)Gal(b1-4)Glc = target: GlcNAc(b1-3)Gal(b1-4)Glc
# How it was run: as §1
# [15] = target: GlcNAc(b1-3)Gal(b1-4)GlcNAc
# How it was run: as §1
# [16] = target: GlcNAc(b1-3)Gal(b1-4)GlcNAc(b1-2)Man(a1-3)[GlcNAc(b1-3)Gal(b1-4)GlcNAc(b1-2)Man(a1-6)]Man(b1-4)GlcNAc(b1-4)GlcNAc
# How it was run: as §1
# [17] = target: GlcNAc(b1-3)Gal(b1-4)GlcNAc(b1-2)Man(a1-3)[GlcNAc(b1-3)Gal(b1-4)GlcNAc(b1-2)Man(a1-6)]Man(b1-4)GlcNAc(b1-4)[Fuc(a1-6)]GlcNAc
# How it was run: as §1
# [18] = target: GlcNAc(b1-3)Gal(b1-4)GlcNAc(b1-2)[GlcNAc(b1-3)Gal(b1-4)GlcNAc(b1-6)]Man(a1-6)[GlcNAc(b1-3)Gal(b1-4)GlcNAc(b1-2)Man(a1-3)]Man(b1-4)GlcNAc(b1-4)GlcNAc
# How it was run: as §1
# [19] = target: GlcNAc(b1-3)Gal(b1-4)GlcNAc(b1-3)Gal(b1-4)GlcNAc
# How it was run: as §1
# [20] = target: GlcNAc(b1-3)Gal(b1-4)GlcNAc(b1-3)Gal(b1-4)GlcNAc(b1-2)Man(a1-3)[GlcNAc(b1-3)Gal(b1-4)GlcNAc(b1-3)Gal(b1-4)GlcNAc(b1-2)Man(a1-6)]Man(b1-4)GlcNAc(b1-4)GlcNAc
# How it was run: as §1
# [21] = target: GlcNAc(b1-3)Gal(b1-4)GlcNAc(b1-3)Gal(b1-4)GlcNAc(b1-2)Man(a1-3)[GlcNAc(b1-3)Gal(b1-4)GlcNAc(b1-3)Gal(b1-4)GlcNAc(b1-2)Man(a1-6)]Man(b1-4)GlcNAc(b1-4)[Fuc(a1-6)]GlcNAc
# How it was run: as §1
# [22] = target: GlcNAc(b1-3)Gal(b1-4)GlcNAc(b1-3)Gal(b1-4)GlcNAc(b1-2)[GlcNAc(b1-3)Gal(b1-4)GlcNAc(b1-3)Gal(b1-4)GlcNAc(b1-6)]Man(a1-6)[GlcNAc(b1-3)Gal(b1-4)GlcNAc(b1-3)Gal(b1-4)GlcNAc(b1-2)Man(a1-3)]Man(b1-4)GlcNAc(b1-4)[Fuc(a1-6)]GlcNAc
# How it was run: as §1
# [23] = target: GlcNAc(b1-3)Gal(b1-4)GlcNAc(b1-3)Gal(b1-4)GlcNAc(b1-3)Gal(b1-4)GlcNAc(b1-2)Man(a1-3)[GlcNAc(b1-3)Gal(b1-4)GlcNAc(b1-3)Gal(b1-4)GlcNAc(b1-3)Gal(b1-4)GlcNAc(b1-2)Man(a1-6)]Man(b1-4)GlcNAc(b1-4)GlcNAc
# How it was run: as §1
# [24] = target: GlcNAc(b1-3)Gal(b1-4)GlcNAc(b1-3)Gal(b1-4)GlcNAc(b1-3)Gal(b1-4)GlcNAc(b1-2)Man(a1-3)[GlcNAc(b1-3)Gal(b1-4)GlcNAc(b1-3)Gal(b1-4)GlcNAc(b1-3)Gal(b1-4)GlcNAc(b1-2)Man(a1-6)]Man(b1-4)GlcNAc(b1-4)[Fuc(a1-6)]GlcNAc
# How it was run: as §1
# [25] = target: GlcNAc(b1-3)Gal(b1-4)GlcNAc(b1-3)Gal(b1-4)GlcNAc(b1-3)Gal(b1-4)GlcNAc(b1-2)[GlcNAc(b1-3)Gal(b1-4)GlcNAc(b1-3)Gal(b1-4)GlcNAc(b1-3)Gal(b1-4)GlcNAc(b1-6)]Man(a1-6)[GlcNAc(b1-3)Gal(b1-4)GlcNAc(b1-3)Gal(b1-4)GlcNAc(b1-3)Gal(b1-4)GlcNAc(b1-2)Man(a1-3)]Man(b1-4)GlcNAc(b1-4)[Fuc(a1-6)]GlcNAc
# How it was run: as §1
# [26] = target: GlcNAc(b1-3)Gal(b1-4)GlcNAc(b1-3)Gal(b1-4)GlcNAc(b1-3)Gal(b1-4)GlcNAc(b1-3)Gal(b1-4)GlcNAc(b1-2)Man(a1-3)[GlcNAc(b1-3)Gal(b1-4)GlcNAc(b1-3)Gal(b1-4)GlcNAc(b1-3)Gal(b1-4)GlcNAc(b1-3)Gal(b1-4)GlcNAc(b1-2)Man(a1-6)]Man(b1-4)GlcNAc(b1-4)GlcNAc
# How it was run: as §1
# [27] = target: GlcNAc(b1-3)Gal(b1-4)GlcNAc(b1-3)Gal(b1-4)GlcNAc(b1-3)Gal(b1-4)GlcNAc(b1-3)Gal(b1-4)GlcNAc(b1-2)Man(a1-3)[GlcNAc(b1-3)Gal(b1-4)GlcNAc(b1-3)Gal(b1-4)GlcNAc(b1-3)Gal(b1-4)GlcNAc(b1-3)Gal(b1-4)GlcNAc(b1-2)Man(a1-6)]Man(b1-4)GlcNAc(b1-4)[Fuc(a1-6)]GlcNAc
# How it was run: as §1
# [28] = target: GlcNAc(b1-3)Gal(b1-4)GlcNAc(b1-3)Gal(b1-4)GlcNAc(b1-3)Gal(b1-4)GlcNAc(b1-3)Gal(b1-4)GlcNAc(b1-2)[GlcNAc(b1-3)Gal(b1-4)GlcNAc(b1-3)Gal(b1-4)GlcNAc(b1-3)Gal(b1-4)GlcNAc(b1-3)Gal(b1-4)GlcNAc(b1-6)]Man(a1-6)[GlcNAc(b1-3)Gal(b1-4)GlcNAc(b1-3)Gal(b1-4)GlcNAc(b1-3)Gal(b1-4)GlcNAc(b1-3)Gal(b1-4)GlcNAc(b1-2)Man(a1-3)]Man(b1-4)GlcNAc(b1-4)[Fuc(a1-6)]GlcNAc
# How it was run: as §1
# [29] = target: GlcNAc(b1-3)Gal(b1-4)GlcNAc(b1-3)Gal(b1-4)GlcNAc(b1-3)GalNAc
# How it was run: as §1
# [30] = target: GlcNAc(b1-3)Gal(b1-4)GlcNAc(b1-3)GalNAc
# How it was run: as §1
# [31] = target: GlcNAc(b1-3)Gal(b1-4)GlcNAc(b1-3)[GlcNAc(b1-3)Gal(b1-4)GlcNAc(b1-3)]GalNAc
# How it was run: as §1
# [32] = target: GlcNAc(b1-3)Gal(b1-4)GlcNAc(b1-6)[Gal(b1-3)]GalNAc
# How it was run: as §1
# [33] = target: GlcNAc(b1-3)Gal(b1-4)GlcNAc(b1-6)[GlcNAc(b1-3)Gal(b1-3)]GalNAc
# How it was run: as §1
# [34] = target: GlcNAc(b1-3)Gal(b1-4)GlcNAc(b1-6)[GlcNAc(b1-3)]Gal(b1-4)GlcNAc
# How it was run: as §1
# GlcNAc(b1-3)GalNAc = target: GlcNAc(b1-3)GalNAc
# How it was run: as §1
# GlcNAc(b1-3)Man = target: GlcNAc(b1-3)Man
# How it was run: as §1
# [35] = target: GlcNAc(b1-3)[GlcNAc(b1-4)][GlcNAc(b1-6)]GlcNAc
# How it was run: as §1
# [36] = target: GlcNAc(b1-3)[GlcNAc(b1-6)]Gal(b1-4)GlcNAc
# How it was run: as §1
# [37] = target: GlcNAc(b1-3)[GlcNAc(b1-6)]GalNAc
# How it was run: as §1
# [38] = target: GlcNAc(b1-4)Gal(b1-4)GlcNAc
# How it was run: as §1
# GlcNAc(b1-4)GlcNAc = target: GlcNAc(b1-4)GlcNAc
# How it was run: as §1
# [39] = target: GlcNAc(b1-4)GlcNAc(b1-4)GlcNAc
# How it was run: as §1
binder,measurement,setting,value
B1,glycan array binding signal (z-score),[1],-0.535
same,glycan array binding signal (z-score),[2],0.451
same,glycan array binding signal (z-score),[3],-0.132
same,glycan array binding signal (z-score),[4],1.18
same,glycan array binding signal (z-score),[5],-0.202
same,glycan array binding signal (z-score),[6],-0.554
same,glycan array binding signal (z-score),[7],0.081
same,glycan array binding signal (z-score),[8],-0.558
same,glycan array binding signal (z-score),[9],-0.769
same,glycan array binding signal (z-score),[10],-0.217
same,glycan array binding signal (z-score),[11],-0.777
same,glycan array binding signal (z-score),[12],0.01
same,glycan array binding signal (z-score),[13],-0.837
same,glycan array binding signal (z-score),GlcNAc(b1-3)Fuc,0.611
same,glycan array binding signal (z-score),GlcNAc(b1-3)Gal,-0.891
same,glycan array binding signal (z-score),[14],0.524
same,glycan array binding signal (z-score),GlcNAc(b1-3)Gal(b1-4)Glc,-0.415
same,glycan array binding signal (z-score),[15],-0.615
same,glycan array binding signal (z-score),[16],0.071
same,glycan array binding signal (z-score),[17],1.11
same,glycan array binding signal (z-score),[18],0.752
same,glycan array binding signal (z-score),[19],-1.1
same,glycan array binding signal (z-score),[20],2.72
same,glycan array binding signal (z-score),[21],3.06
same,glycan array binding signal (z-score),[22],0.195
same,glycan array binding signal (z-score),[23],-0.331
same,glycan array binding signal (z-score),[24],1.93
same,glycan array binding signal (z-score),[25],1.27
same,glycan array binding signal (z-score),[26],1.55
same,glycan array binding signal (z-score),[27],0.076
same,glycan array binding signal (z-score),[28],1.72
same,glycan array binding signal (z-score),[29],-0.061
same,glycan array binding signal (z-score),[30],0.584
same,glycan array binding signal (z-score),[31],0.021
same,glycan array binding signal (z-score),[32],-0.776
same,glycan array binding signal (z-score),[33],-0.066
same,glycan array binding signal (z-score),[34],0.458
same,glycan array binding signal (z-score),GlcNAc(b1-3)GalNAc,-0.432
same,glycan array binding signal (z-score),GlcNAc(b1-3)Man,-0.084
same,glycan array binding signal (z-score),[35],-0.974
same,glycan array binding signal (z-score),[36],-0.695
same,glycan array binding signal (z-score),[37],-0.801
same,glycan array binding signal (z-score),[38],-0.582
same,glycan array binding signal (z-score),GlcNAc(b1-4)GlcNAc,-0.331
same,glycan array binding signal (z-score),[39],-0.482

# Given with tabs: entries from further up.
binder	measurement	setting	value
B1	glycan array binding signal (z-score)	[7]	0.081
same	glycan array binding signal (z-score)	[8]	-0.558
same	glycan array binding signal (z-score)	[9]	-0.769
same	glycan array binding signal (z-score)	[10]	-0.217

# From the supplement of paper PMC8728848
